Assay results: doi:10.1101/2025.11.22.689900

By UniProt entry, the sequences of proteins in these tests, tags left out. Where a name states a change or a piece, a line headed by the entry shows the natural chain unless it says otherwise.
UniProt Q9NZC7: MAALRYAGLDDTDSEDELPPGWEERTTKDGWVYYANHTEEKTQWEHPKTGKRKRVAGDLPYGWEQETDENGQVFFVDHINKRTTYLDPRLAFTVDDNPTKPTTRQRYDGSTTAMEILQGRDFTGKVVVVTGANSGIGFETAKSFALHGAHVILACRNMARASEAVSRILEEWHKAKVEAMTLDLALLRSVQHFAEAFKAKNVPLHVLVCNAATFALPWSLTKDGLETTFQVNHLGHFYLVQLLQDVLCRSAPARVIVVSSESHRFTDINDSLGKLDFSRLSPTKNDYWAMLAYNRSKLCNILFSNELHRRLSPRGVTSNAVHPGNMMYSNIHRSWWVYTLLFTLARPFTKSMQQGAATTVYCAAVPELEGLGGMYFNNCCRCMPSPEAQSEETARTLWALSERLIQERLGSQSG
UniProt P56693: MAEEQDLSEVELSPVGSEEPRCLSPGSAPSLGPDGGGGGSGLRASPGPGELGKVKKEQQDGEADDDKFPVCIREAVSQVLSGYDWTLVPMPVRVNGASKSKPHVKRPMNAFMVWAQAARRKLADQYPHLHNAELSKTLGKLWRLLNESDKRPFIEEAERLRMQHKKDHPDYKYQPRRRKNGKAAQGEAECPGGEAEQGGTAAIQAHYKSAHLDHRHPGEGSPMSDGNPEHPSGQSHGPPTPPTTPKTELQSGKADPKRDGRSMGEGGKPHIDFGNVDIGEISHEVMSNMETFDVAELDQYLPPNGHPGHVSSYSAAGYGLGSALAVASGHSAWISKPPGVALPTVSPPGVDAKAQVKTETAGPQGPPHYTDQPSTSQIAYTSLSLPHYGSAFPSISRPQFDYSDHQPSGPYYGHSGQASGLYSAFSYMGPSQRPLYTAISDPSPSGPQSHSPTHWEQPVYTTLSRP

Target: WWOX-WFPA (WW1-domain mutant of WWOX, GST pull-down) (UniProt Q9NZC7)
Experiment: pull-down

SOX10 (doxycycline-inducible plasmid, Addgene #115241) (from UniProt P56693 1-466)
binding: no binding

These are yes or no findings as the source states them, for the method shown. In cells and extracts the contact can be indirect.
